# Counter-ions that a name gives are not always drawn. ± gives the standard deviation of the averaged measurements. The list shows a part of the results. This data set is noisy: repeats of one test often differ as much as different tests do.
# Test system: A549
# Assay: surface PD-L1 immunofluorescence intensity relative to IFN-gamma-only control (ratio); higher = more PD-L1 expression
# Conditions: 10 µM; exposure time 24 h; IFN-gamma 100 ng/mL
row,SMILES,surface PD-L1 immunofluorescence intensity
1,"CN(C(=O)Cc1ccc(Cl)c(Cl)c1)[C@H](CN1CCCC1)c1ccccc1 [ICI-199,441 hydrochloride]",0.935
2,Clc1cnc(Oc2ccc(Oc3ncc(Cl)cc3Cl)cc2)c(Cl)c1,1.03
3,C=C1[C@@H]2CC[C@H]3[C@]4(C)C[C@H](O[C@@H]5O[C@H](CO)[C@@H](OS(=O)(=O)O)[C@H](OS(=O)(=O)O)[C@H]5OC(=O)CC(C)C)C[C@@H](C(=O)O)[C@H]4CC[C@]3(C2)[C@@H]1O [Atractyloside potassium salt],0.943
4,CC(Cc1ccc(O)cc1)NCC(O)c1cc(O)cc(O)c1 (stereo unspecified) [Fenoterol hydrobromide],0.877
5,Cn1cnc(CCN)c1 [N _-Methylhistamine dihydrochloride],1.01
6,C1CCc2nnnn2CC1 [Pentylenetetrazole],0.944 ± 0.07
7,C=CC[C@]1(O)CC[C@H]2[C@@H]3CCC4=CC(=O)CCC4=C3C=C[C@@]21C [Altrenogest],0.979
8,C[C@]12CC[C@@H](O)C[C@@H]1CC[C@@H]1[C@@H]2CC[C@]2(C)C(=O)CC[C@@H]12 [Androsterone],1.03
9,"CNCC(O)c1ccc(O)cc1 (racemic) [(+,-)-Synephrine]",1.03
10,CN(C)CCc1ccc(O)cc1 [Hordenine],1.08
11,CC(=O)[C@H]1CC[C@H]2[C@@H]3CC[C@H]4C[C@](C)(O)CC[C@]4(C)[C@H]3CC[C@]12C [Ganaxolone],0.935
12,COc1ccc(N(C(=O)Oc2c(C)cccc2C)c2ccnc(Nc3ccc(N4CCN(C)CC4)cc3)n2)c(OC)c1,1.06
13,C#C[C@]1(O)CC[C@H]2[C@@H]3CCC4=CC(=O)CCC4=C3C=C[C@@]21CC [Gestrinone],0.953
14,CN1[C@@H]2C[C@@H](OC(=O)[C@H](CO)c3ccccc3)C[C@H]1[C@@H]1O[C@@H]12 [Scopolamine HBr],0.879
15,CN1[C@@H]2C[C@@H](OC(=O)[C@H](CO)c3ccccc3)C[C@H]1[C@@H]1O[C@@H]12 [Scopolamine hydrobromide],0.986
16,CN1[C@@H]2C[C@@H](OC(=O)[C@H](CO)c3ccccc3)C[C@H]1[C@@H]1O[C@@H]12 [Scopolamine hydrochloride],1.04
17,O=C(O)C1=CCCN(CCOC(c2ccc(C(F)(F)F)cc2)c2ccc(C(F)(F)F)cc2)C1 [CI 966 hydrochloride],0.985
18,CC(C)(O)[C@H]1O[C@H]2CC[C@@]3(C)[C@@](O)(CC[C@H]4Cc5c([nH]c6ccccc56)[C@@]43C)C2=CC1=O [Paxilline],1.088 ± 0.0039
19,O[C@H]1[C@H](O)[C@@H](O)CN2CC[C@H](O)[C@H]12 [Castanospermine],1.06
20,"NCC(CC(=O)O)c1ccc(Cl)cc1 (racemic) [Baclofen (R,S)]",0.87
21,N[C@@H]1C[C@H]1c1ccccc1 [Tranylcypromine hydrochloride],1.012 ± 0.0022
22,O=C1CC[C@@]2(O)[C@H]3Cc4ccc(O)c5c4[C@@]2(CCN3CC2CC2)[C@H]1O5 [Naltrexone hydrochloride dihydrate],0.957
23,CN[C@@H]1[C@@H](O)[C@@H](O[C@@H]2[C@@H](O)[C@H](O[C@H]3O[C@H](CN)CC[C@H]3N)[C@@H](N)C[C@H]2N)OC[C@]1(C)O.CN[C@@H]1[C@@H](O)[C@@H](O[C@@H]2[C@@H](O)[C@H](O[C@H]3O[C@H]([C@@H](C)N)CC[C@H]3N)[C@@H](N)C[C@H]2N)OC[C@]1(C)O.CN[C@@H]1[C@@H](O)[C@@H](O[C@@H]2[C@@H](O)[C@H](O[C@H]3O[C@H]([C@@H](C)NC)CC[C@H]3N)[C@@H](N)C[C@H]2N)OC[C@]1(C)O [Gentamicine sulfate],0.971

# Look-ups from the results shown.
# Value for CNCC(O)c1ccc(O)cc1 (racemic) [(+,-)-Synephrine] under surface PD-L1 immunofluorescence intensity: 1.03
# Value for CC(=O)[C@H]1CC[C@H]2[C@@H]3CC[C@H]4C[C@](C)(O)CC[C@]4(C)[C@H]3CC[C@]12C [Ganaxolone] under surface PD-L1 immunofluorescence intensity: 0.935
# Value for Cn1cnc(CCN)c1 [N _-Methylhistamine dihydrochloride] under surface PD-L1 immunofluorescence intensity: 1.01

# Additional records follow.

row,SMILES,surface PD-L1 immunofluorescence intensity
1,Cn1c(CCCC(=O)O)nc2cc(N(CCCl)CCCl)ccc21 [Bendamustine HCL],1.02
2,Oc1ccc2c3c1O[C@H]1c4[nH]c5ccccc5c4C[C@@]4(O)[C@@H](C2)N(CC2CC2)CC[C@]314 [Naltrindole hydrochloride],1.17
3,"Cc1cc(C)cc(C(=O)OC2C[C@H]3CC[C@@H](C2)N3C)c1 (stereo partly specified) [Tropanyl-3,5-dimethylbenzoate]",0.997
4,CC(NC(C)(C)C)C(=O)c1cccc(Cl)c1 (stereo unspecified) [Bupropion hydrochloride],0.837
5,CC1(C)[C@H](C(=O)O[C@H](C#N)c2cccc(Oc3ccccc3)c2)[C@@H]1C=C(Br)Br [Deltamethrin],0.905
6,"CN1CCC2(C)c3cc(O)ccc3N(C)C12 (single isomer, unassigned; (-)) [(-)-Eseroline fumarate salt]",0.993
7,Cc1onc(O)c1CC(N)C(=O)O (racemic),1.12
8,CC(C)(C)c1cc(C=C(C#N)C#N)cc(Br)c1O,1.002 ± 0.0012
9,NC[C@H](CC(=O)O)c1ccc(Cl)cc1 [(R)-baclofen],1.01
10,O=c1c2ccccc2[se]n1-c1ccccc1 [Ebselen],1.038 ± 0.0046
11,CCCN(CCC)C1Cc2cc(OC)c(OC)cc2C1,0.945
12,CN1CCCCC1Cn1cc(C(=O)c2cc([N+](=O)[O-])ccc2I)c2ccccc21 (stereo unspecified),1.05
13,NCC(O)c1ccc(O)cc1 (stereo unspecified) [Octopamine hydrochloride],0.995
14,O=c1ccc2cc(O[C@@H]3O[C@H](CO)[C@@H](O)[C@H](O)[C@H]3O)c(O)cc2o1 [Aesculin (Esculin)],0.954
15,O=C(NCC1CCOCC1)c1cnc(Nc2ccc(Cl)cc2Cl)nc1C(F)(F)F,0.972
16,COC(=O)[C@@H](N)CCCNC(=N)N[N+](=O)[O-] [L-NAME hydrochloride],1.02
17,COC(=O)[C@@H](N)CCCNC(=N)N[N+](=O)[O-],0.987
18,O=C1Nc2ccccc2C2(CCN(CCc3ccc(C(F)(F)F)cc3)CC2)O1,0.988
19,CC(N)Cc1cnc[nH]1 (stereo unspecified),1.05
20,O=C1C=CC[C@@H]2[C@H]3CCCN4CCC[C@@H](CN12)[C@@H]34 [Sophocarpine],1.19
21,S=C=Nc1cccc(C2(N3CCCCC3)CCCCC2)c1 [Metaphit],1
22,CC(=O)O[C@H]1C[C@@H]2CC[C@@H]3[C@H](CC[C@@]4(C)[C@H]3C[C@H]([N+]3(C)CCCCC3)[C@@H]4OC(C)=O)[C@@]2(C)C[C@@H]1[N+]1(C)CCCCC1 [Pancuronium (Pavulon)],1.04
23,CC(=O)O[C@H]1C[C@@H]2CC[C@@H]3[C@H](CC[C@@]4(C)[C@H]3C[C@H]([N+]3(C)CCCCC3)[C@@H]4OC(C)=O)[C@@]2(C)C[C@@H]1[N+]1(C)CCCCC1 [Pancuronium bromide],0.985

# Source: the supplement of paper PMC8732350
